Legend:
[1] = general procedure: Fmoc solid-phase peptide synthesis; Rink-amide-Chemmatrix resin (Biotage Japan, Ltd.); details: late stage modification step
[2] = general procedure: Fmoc solid-phase peptide synthesis; Rink-amide-Chemmatrix resin; details: cyclisation step

Row | Substance | step yield [1] | cyclisation yield [2]
1 | N-terminally acetylated RRC-PEG4-added synthetic peptide GPDCAYHXGELVWCTFH (X = lysine, C-terminally amidated), cyclized via dichloropropanone | 67% | –
2 | N-terminally acetylated RRC (Acm-protected)-PEG4-added synthetic peptide GPDCAYHXGELVWCTFH (X = lysine, C-terminally amidated), cyclized via dichloropropanone | – | 50%

From US12037417B2 (Kagoshima University, priority 2016, dated 2024)
